According to patent publication US20130302344A1, “METHODS AND MEDICAMENTS FOR THE TREATMENT OF GOUT OR PSEUDOGOUT” (TOPOTARGET SWITZERLAND SA, priority 2006, published 2013):
For at least one compound, name, drawing or mass did not settle the structure.

Experiments:
Human primary monocytes = assay: IL-1β processing in human primary monocytes; format: cell-based; details: 200 nM overnight, FIG. 7
NALP3 = assay: Degradation of NALP3 in Flag-tagged NALP3 T-rex cells (Western blot); format: cell-based; details: 1 μM, eight hours, with or without Sgt1 siRNA; FIG. 9

COC1=C2C[C@@H](C)C[C@H](OC)[C@H](O)[C@@H](C)/C=C(\C)[C@H](OC(N)=O)[C@@H](OC)/C=C\C=C(/C)C(=O)NC(=CC1=O)C2=O [geldanamycin]
production of IL-1β induced by ATP (Human primary monocytes; then 5 mM ATP 6 h): inhibited
production of mature IL-1β, MSU crystals (Human primary monocytes; then MSU 100 μg/ml 6 h): abrogated
production of IL-1β induced by PGN (Human primary monocytes; then PGN 50 μg/ml 6 h): inhibited
NALP3 expression (NALP3): abrogated
